Taken from: PubChem BioAssay AID1224828 (NIAID, 2016)
Test: 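Knock-downs that increase or decrease LPS-induced p65 nuclear translocation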 (primary screen). Cell system: mouse RAW264.7 G9 macrophage reporter cells (GFP-p65, Tnf promoter-mCherry). Reagent: siRNA pool against mouse genes, 100 nM. Duration: 2 days siRNA transfection, then 40 min LPS before fixation. Conditions: LPS (Salmonella minnesota R595) at 10 ng/ml. Read-out: 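Microscopy ratio of nuclear to perinuclear-ring GFP-p65 signal, scaled to the plate median; gene score is the average of two replicate robust z-scores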. Direction: p65 translocation robust z-score: higher = more nuclear NF-kappaB p65 after LPS than the plate median; nuclear/cytoplasmic p65 ratio: higher = more nuclear NF-kappaB p65. Rule for the call: 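Called active when z exceeds 3.3 or falls under -1.56 (median of Tlr4 controls), giving activity score of at least 50; no calls for control wells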. Calls: active = hit (p65 shift raised or lowered); inactive = no clear change.
Here is one part, drawn at random, of about 17,000 reagents tested. 762 of them (4.5%) count as active. 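Active calls include both raised and lowered p65 entry, mostly lowered; wells with fewer than 50 cells lack a z-score.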 Raw values vary from plate to plate and are shown uncorrected. Reagents against one gene are numbered here.

{"target": "Map3k4 (mitogen-activated protein kinase kinase kinase 4)", "pool no.": 1, "p65 translocation robust z-score": -0.08, "nuclear/cytoplasmic p65 ratio, rep 1": 1.77, "nuclear/cytoplasmic p65 ratio, rep 2": 1.29, "low cell count flag": "enough cells to score", "activity call": "inactive"}
{"target": "Zfp438 (zinc finger protein 438)", "pool no.": 1, "p65 translocation robust z-score": -0.34, "nuclear/cytoplasmic p65 ratio, rep 1": 1.55, "nuclear/cytoplasmic p65 ratio, rep 2": 1.76, "low cell count flag": "enough cells to score", "activity call": "inactive"}
{"target": "Ofd1 (OFD1, centriole and centriolar satellite protein)", "pool no.": 1, "p65 translocation robust z-score": -1.11, "nuclear/cytoplasmic p65 ratio, rep 1": 1.27, "nuclear/cytoplasmic p65 ratio, rep 2": 1.3, "low cell count flag": "enough cells to score", "activity call": "inactive"}
{"target": "Trp53inp1", "pool no.": 1, "p65 translocation robust z-score": -0.58, "nuclear/cytoplasmic p65 ratio, rep 1": 1.46, "nuclear/cytoplasmic p65 ratio, rep 2": 1.39, "low cell count flag": "enough cells to score", "activity call": "inactive"}
{"target": "Cep41 (centrosomal protein 41)", "pool no.": 1, "p65 translocation robust z-score": 1.04, "nuclear/cytoplasmic p65 ratio, rep 1": 1.43, "nuclear/cytoplasmic p65 ratio, rep 2": 1.34, "low cell count flag": "enough cells to score", "activity call": "inactive"}
{"target": "Fbxw9 (F-box and WD-40 domain protein 9)", "pool no.": 1, "p65 translocation robust z-score": 0.69, "nuclear/cytoplasmic p65 ratio, rep 1": 1.58, "nuclear/cytoplasmic p65 ratio, rep 2": 1.66, "low cell count flag": "enough cells to score", "activity call": "inactive"}
{"target": "Pcgf6 (polycomb group ring finger 6)", "pool no.": 1, "p65 translocation robust z-score": 0.67, "nuclear/cytoplasmic p65 ratio, rep 1": 1.52, "nuclear/cytoplasmic p65 ratio, rep 2": 1.29, "low cell count flag": "enough cells to score", "activity call": "inactive"}
{"target": "Sap30 (Sin3A associated protein 30)", "pool no.": 1, "p65 translocation robust z-score": 3.02, "nuclear/cytoplasmic p65 ratio, rep 1": 2, "nuclear/cytoplasmic p65 ratio, rep 2": 1.89, "low cell count flag": "enough cells to score", "activity call": "inactive"}
{"target": "Vmn1r218 (vomeronasal 1 receptor 218)", "pool no.": 1, "nuclear/cytoplasmic p65 ratio, rep 1": 1.4, "nuclear/cytoplasmic p65 ratio, rep 2": 1.19, "low cell count flag": "fewer than 50 cells per well; well left out of scoring", "activity call": "inactive"}

Copied from the list.
Under “p65 translocation robust z-score”, Ofd1 (OFD1, centriole and centriolar satellite protein) reads -1.11
For “nuclear/cytoplasmic p65 ratio, rep 1”, Vmn1r218 (vomeronasal 1 receptor 218) reads 1.4

Continued:
{"target": "Hadh (hydroxyacyl-Coenzyme A dehydrogenase)", "pool no.": 1, "p65 translocation robust z-score": -0.39, "nuclear/cytoplasmic p65 ratio, rep 1": 1.55, "nuclear/cytoplasmic p65 ratio, rep 2": 1.34, "low cell count flag": "enough cells to score", "activity call": "inactive"}
{"target": "F2 (coagulation factor II)", "pool no.": 1, "p65 translocation robust z-score": 0.84, "nuclear/cytoplasmic p65 ratio, rep 1": 1.48, "nuclear/cytoplasmic p65 ratio, rep 2": 1.56, "low cell count flag": "enough cells to score", "activity call": "inactive"}
{"target": "Rps6kb1 (ribosomal protein S6 kinase B1)", "pool no.": 1, "p65 translocation robust z-score": 0.38, "nuclear/cytoplasmic p65 ratio, rep 1": 1.41, "nuclear/cytoplasmic p65 ratio, rep 2": 1.31, "low cell count flag": "enough cells to score", "activity call": "inactive"}
{"target": "Rtl5 (retrotransposon Gag like 5)", "pool no.": 1, "p65 translocation robust z-score": 1.02, "nuclear/cytoplasmic p65 ratio, rep 1": 1.41, "nuclear/cytoplasmic p65 ratio, rep 2": 1.69, "low cell count flag": "enough cells to score", "activity call": "inactive"}
{"target": "Rps24 (ribosomal protein S24)", "pool no.": 1, "nuclear/cytoplasmic p65 ratio, rep 1": 1.32, "nuclear/cytoplasmic p65 ratio, rep 2": 1.09, "low cell count flag": "fewer than 50 cells per well; well left out of scoring", "activity call": "inactive"}
{"target": "Clcn3 (chloride channel, voltage-sensitive 3)", "pool no.": 1, "p65 translocation robust z-score": 0.22, "nuclear/cytoplasmic p65 ratio, rep 1": 1.67, "nuclear/cytoplasmic p65 ratio, rep 2": 1.77, "low cell count flag": "enough cells to score", "activity call": "inactive"}
{"target": "Col4a4 (collagen, type IV, alpha 4)", "pool no.": 1, "p65 translocation robust z-score": -1.51, "nuclear/cytoplasmic p65 ratio, rep 1": 1.32, "nuclear/cytoplasmic p65 ratio, rep 2": 1.13, "low cell count flag": "enough cells to score", "activity call": "inactive"}
{"target": "Col4a4 (collagen, type IV, alpha 4)", "pool no.": 2, "nuclear/cytoplasmic p65 ratio, rep 1": 1.03, "nuclear/cytoplasmic p65 ratio, rep 2": 2.26, "low cell count flag": "fewer than 50 cells per well; well left out of scoring", "activity call": "inactive"}
{"target": "Strn4 (striatin, calmodulin binding protein 4)", "pool no.": 1, "p65 translocation robust z-score": -0.83, "nuclear/cytoplasmic p65 ratio, rep 1": 1.44, "nuclear/cytoplasmic p65 ratio, rep 2": 1.14, "low cell count flag": "enough cells to score", "activity call": "inactive"}
{"target": "Sptssa (serine palmitoyltransferase, small subunit A)", "pool no.": 1, "p65 translocation robust z-score": 1.1, "nuclear/cytoplasmic p65 ratio, rep 1": 1.57, "nuclear/cytoplasmic p65 ratio, rep 2": 1.72, "low cell count flag": "enough cells to score", "activity call": "inactive"}
{"target": "Mrpl14 (mitochondrial ribosomal protein L14)", "pool no.": 1, "p65 translocation robust z-score": -0.01, "nuclear/cytoplasmic p65 ratio, rep 1": 1.79, "nuclear/cytoplasmic p65 ratio, rep 2": 1.49, "low cell count flag": "enough cells to score", "activity call": "inactive"}
{"target": "Tas2r118 (taste receptor, type 2, member 118)", "pool no.": 1, "p65 translocation robust z-score": 1.13, "nuclear/cytoplasmic p65 ratio, rep 1": 1.67, "nuclear/cytoplasmic p65 ratio, rep 2": 2.29, "low cell count flag": "enough cells to score", "activity call": "inactive"}
